Columns and labels:
μ-opioid receptor = target: T1, μ-opioid receptor (Rattus norvegicus, UniProt P33535); assay: μ-opioid (Naloxon) binding, in vitro rat brain
T1 construct: from tissue; host or cells: rat brain
Excerpt: The μ-opioid receptor binding was investigated in in vitro rat brain binding experiments using naloxone.

Chains of the proteins cited; added tags and fusions are not shown.
UniProt P33535, whole entry: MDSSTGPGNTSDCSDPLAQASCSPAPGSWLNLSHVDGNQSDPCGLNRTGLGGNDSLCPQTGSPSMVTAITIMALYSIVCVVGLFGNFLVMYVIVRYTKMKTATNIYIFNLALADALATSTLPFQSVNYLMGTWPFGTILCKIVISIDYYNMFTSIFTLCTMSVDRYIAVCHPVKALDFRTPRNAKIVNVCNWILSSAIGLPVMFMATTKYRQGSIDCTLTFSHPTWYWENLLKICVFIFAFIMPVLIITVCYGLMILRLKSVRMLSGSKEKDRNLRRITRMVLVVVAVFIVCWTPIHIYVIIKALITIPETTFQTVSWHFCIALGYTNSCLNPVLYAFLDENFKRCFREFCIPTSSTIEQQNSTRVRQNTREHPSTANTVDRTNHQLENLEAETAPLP

[1] = system: neuronal uptake of norepinephrine (NE); assay: Noradrenaline uptake inhibition, in vitro rat brain; type: biochemical; settings: read-out: Noradrenalin uptake IC50
Excerpt: The inhibition of neuronal uptake of monoamines (norepinephrine; NE) was investigated in in vitro rat brain binding experiments.

Q: Which IC50 (μ-opioid receptor) does the source give for `COc1cccc([C@@]2(O)CCCC[C@@H]2CN(C)C)c1` (racemic) [Tramadol, (1RS, 2RS)-2[(dimethylamino)methyl]-1-(3-methoxyphenyl)-cyclohexanol] here?
A: The IC50 was 19.1 µM.

Q: And the IC50 [1]?
A: Its IC50 is 2.8 µM.

Reference: US6593373B2, “Pharmaceutical compositions of O-desmethyl-N-mono-desmethyl-tramadol” (Gruenenthal GmbH, priority 2000, dated 2003)
